Measured values reported in the supplement of paper PMC10331698.
± gives the standard deviation of the averaged measurements. Small differences around the control level are noise.

Columns and labels:
Assay in all cases: level (log10 ratio to DMSO vehicle control); higher = higher biomarker level / cell amount than vehicle control
[1] = compound: C=C(C)C(=O)OCCC(F)(F)C(F)(F)C(F)(F)C(F)(F)C(F)(C(F)(F)F)C(F)(F)F [(Perfluoro-5-methylhexyl)ethyl 2-methylprop-2-enoate]; conditions: in DMSO
Procedure: (§1)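 BioMAP Diversity Plus panel of 12 human primary cell co-culture systems (3C, 4H, LPS, SAg, BT, BF4T, BE3C, CASM3C, HDF3CGF, KF3CT, MyoF, Mphg). Compounds were added 1 h before stimulation and left for 24 h (MyoF 48 h; BT 72 h for soluble read-outs or 6 d for IgG). Biomarkers were read by ELISA, cytotoxicity by SRB, PBMC viability and proliferation by Alamar Blue. Each well value was divided by the mean of 8 DMSO control wells on the same plate and log10 transformed; duplicate blinded samples were tested at 4 concentrations.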

[2] = compound: O=C(O)CCC(F)(F)C(F)(F)C(F)(F)C(F)(F)C(F)(F)F [2H,2H,3H,3H-Perfluorooctanoic acid]; conditions: 2200 nM; in DMSO
Procedure: as §1

[3] = compound: COC(=O)CCC(F)(F)C(F)(F)C(F)(F)C(F)(F)F [Methyl 2H,2H,3H,3H-perfluoroheptanoate]; conditions: 2200 nM; in DMSO
Procedure: as §1

[4] = compound: O=S(=O)(O)C(F)(F)C(F)(F)OC(F)(F)C(F)(F)F [Perfluoro(2-ethoxyethane)sulfonic acid]; conditions: 2200 nM; in DMSO
Procedure: as §1

[5] = compound: O=S(=O)(O)CCC(F)(F)C(F)(F)C(F)(F)C(F)(F)C(F)(F)C(F)(F)F [6:2 Fluorotelomer sulfonic acid]; conditions: in DMSO
Procedure: as §1

[6] = compound: FC(F)(F)C(F)(F)C(F)(F)C(F)(F)C(F)(F)CCI [1-Iodo-1H,1H,2H,2H-perfluoroheptane]; conditions: 2200 nM; in DMSO
Procedure: as §1

[7] = compound: O=C(O)C(F)(F)C(F)(F)C(=O)O [Tetrafluorosuccinic acid]; conditions: 2200 nM; in DMSO
Procedure: as §1

[8] = compound: C=C(C)C(=O)OCCC(F)(F)C(F)(F)C(F)(F)C(F)(F)C(F)(F)C(F)(F)C(F)(F)C(F)(F)F [8:2 Fluorotelomer methacrylate]; conditions: in DMSO
Procedure: as §1

[9] = compound: NC(=O)C(F)(F)C(F)(F)C(F)(F)C(F)(F)C(N)=O [Octafluoroadipamide]; conditions: 2200 nM; in DMSO
Procedure: as §1

[10] = compound: NS(=O)(=O)C(F)(F)C(F)(F)C(F)(F)C(F)(F)C(F)(F)C(F)(F)F [Perfluorohexanesulfonamide]; conditions: 2200 nM; in DMSO
Procedure: as §1

[11] = compound: O=C(O)C(F)(F)C(F)(F)C(F)(F)C(F)(F)C(F)(F)C(F)(F)C(F)(F)C(F)(F)Cl [9-Chloro-perfluorononanoic acid]; conditions: in DMSO
Procedure: as §1

[12] = compound: OCCC(F)(F)C(F)(F)C(F)(F)C(F)(F)F [4:2 Fluorotelomer alcohol]; conditions: 2200 nM; in DMSO
Procedure: as §1

[13] = compound: NC(=O)C(F)(F)C(F)(F)C(F)(F)C(F)(F)F [Nonafluoropentanamide]; conditions: 2200 nM; in DMSO
Procedure: as §1

[14] = compound: OC(C(F)(F)F)(C(F)(F)F)C(O)(C(F)(F)F)C(F)(F)F [Perfluoropinacol]; conditions: in DMSO
Procedure: as §1

## LPS:CD141/Thrombomodulin
[1]; 740 nM
  level (log10): 0.027 ± 0.033
[1]; 2200 nM
  level (log10): 0.0075 ± 0.03
[1]; 6700 nM
  level (log10): 0.0055 ± 0.0092
[1]; 20000 nM
  level (log10): -0.0345 ± 0.021
[2]
  level (log10): 0.114 ± 0.0085
[3]
  level (log10): -0.0055 ± 0.018
[4]
  level (log10): 0.082 ± 0.0057
[5]; 2200 nM
  level (log10): 0.107 ± 0.05
[5]; 6700 nM
  level (log10): 0.061 ± 0.03
[5]; 20000 nM
  level (log10): 0.065 ± 0.0057
[5]; 60000 nM
  level (log10): 0.0475 ± 0.021
[6]
  level (log10): -0.0035 ± 0.013
[7]
  level (log10): 0.0075 ± 0.1
[8]; 740 nM
  level (log10): 0.0165 ± 0.013
[8]; 2200 nM
  level (log10): -0.0015 ± 0.026
[9]
  level (log10): -0.0295 ± 0.1
[10]
  level (log10): -0.01
[11]; 2200 nM
  level (log10): 0.0355 ± 0.018
[11]; 6700 nM
  level (log10): 0.0485 ± 0.033
[11]; 20000 nM
  level (log10): 0.064 ± 0.03
[12]
  level (log10): -0.0035 ± 0.0021
[13]
  level (log10): 0.017 ± 0.0014
[14]; 2200 nM
  level (log10): -0.0115 ± 0.022
[14]; 6700 nM
  level (log10): -0.106 ± 0.028
[14]; 20000 nM
  level (log10): -0.118 ± 0.005

## HDF3CGF:CXCL11/I-TAC
[1]; 740 nM
  level (log10): -0.005 ± 0.0085
[1]; 2200 nM
  level (log10): -0.003 ± 0.0099
[1]; 6700 nM
  level (log10): -0.013 ± 0.0014
[1]; 20000 nM
  level (log10): -0.0155 ± 0.013
[2]
  level (log10): -0.0475 ± 0.06
[3]
  level (log10): -0.0035 ± 0.011
[4]
  level (log10): 0.0075 ± 0.0021
[5]; 2200 nM
  level (log10): -0.0555 ± 0.064
[5]; 6700 nM
  level (log10): -0.0445 ± 0.1
[5]; 20000 nM
  level (log10): -0.0605 ± 0.088
[5]; 60000 nM
  level (log10): -0.0885 ± 0.091
[6]
  level (log10): 0.0085 ± 0.036
[7]
  level (log10): -0.0225 ± 0.025
[8]; 740 nM
  level (log10): -0.051 ± 0.044
[8]; 2200 nM
  level (log10): -0.002 ± 0.028
[9]
  level (log10): -0.0005 ± 0.033
[10]
  level (log10): -0.0005 ± 0.0092
[11]; 2200 nM
  level (log10): -0.082 ± 0.024
[11]; 6700 nM
  level (log10): -0.105 ± 0.029
[11]; 20000 nM
  level (log10): -0.217 ± 0.069
[12]
  level (log10): -0.003 ± 0.034
[13]
  level (log10): -0.0065 ± 0.037
[14]; 2200 nM
  level (log10): -0.05 ± 0.071
[14]; 6700 nM
  level (log10): -0.062 ± 0.041
[14]; 20000 nM
  level (log10): -0.234 ± 0.015

## CASM3C:IL-6
[1]; 740 nM
  level (log10): 0.033 ± 0.088
[1]; 2200 nM
  level (log10): -0.041 ± 0.014
[1]; 6700 nM
  level (log10): -0.035 ± 0.0042
[1]; 20000 nM
  level (log10): 0.0345 ± 0.028
[2]
  level (log10): 0.007 ± 0.037
[3]
  level (log10): 0.0095 ± 0.052
[4]
  level (log10): 0.0105 ± 0.032
[5]; 2200 nM
  level (log10): 0.0115 ± 0.043
[5]; 6700 nM
  level (log10): -0.003 ± 0.011
[5]; 20000 nM
  level (log10): -0.014 ± 0.0014
[5]; 60000 nM
  level (log10): 0.006 ± 0.017
[6]
  level (log10): -0.0305 ± 0.0035
[7]
  level (log10): 0.008 ± 0.052
[8]; 740 nM
  level (log10): 0.034 ± 0.048
[8]; 2200 nM
  level (log10): -0.0065 ± 0.026
[9]
  level (log10): 0.0025 ± 0.054
[10]
  level (log10): 0.003 ± 0.024
[11]; 2200 nM
  level (log10): -0.002 ± 0.055
[11]; 6700 nM
  level (log10): -0.0115 ± 0.00071
[11]; 20000 nM
  level (log10): -0.0325 ± 0.019
[12]
  level (log10): -0.0085 ± 0.039
[13]
  level (log10): 0.0715 ± 0.036
[14]; 2200 nM
  level (log10): 0.01 ± 0.054
[14]; 6700 nM
  level (log10): -0.0045 ± 0.025
[14]; 20000 nM
  level (log10): 0.033 ± 0.0085

## MyoF:SRB
[1]; 740 nM
  level (log10): 0.0005 ± 0.005
[1]; 2200 nM
  level (log10): 0.0085 ± 0.0064
[1]; 6700 nM
  level (log10): 0.001 ± 0.014
[1]; 20000 nM
  level (log10): -0.0035 ± 0.0078
[2]
  level (log10): 0.0035 ± 0.013
[3]
  level (log10): -0.0035 ± 0.0064
[4]
  level (log10): -0.0005 ± 0.00071
[5]; 2200 nM
  level (log10): -0.006 ± 0.0099
[5]; 6700 nM
  level (log10): -0.002 ± 0.0014
[5]; 20000 nM
  level (log10): 0.0005 ± 0.0092
[5]; 60000 nM
  level (log10): -0.0015 ± 0.0021
[6]
  level (log10): -0.0155 ± 0.022
[7]
  level (log10): 0.0055 ± 0.0035
[8]; 740 nM
  level (log10): -0.0025 ± 0.0092
[8]; 2200 nM
  level (log10): 0.001 ± 0.0028
[9]
  level (log10): -0.006 ± 0.0071
[10]
  level (log10): -0.014 ± 0.014
[11]; 2200 nM
  level (log10): -0.002 ± 0.014
[11]; 6700 nM
  level (log10): -0.004
[11]; 20000 nM
  level (log10): -0.0605 ± 0.005
[12]
  level (log10): 0.0005 ± 0.011
[13]
  level (log10): 0.003 ± 0.0099
[14]; 2200 nM
  level (log10): -0.01 ± 0.0014
[14]; 6700 nM
  level (log10): -0.012
[14]; 20000 nM
  level (log10): -0.0445 ± 0.0021

## MyoF:MMP-1
[1]; 740 nM
  level (log10): -0.029 ± 0.013
[1]; 2200 nM
  level (log10): -0.062 ± 0.0014
[1]; 6700 nM
  level (log10): -0.023 ± 0.0057
[1]; 20000 nM
  level (log10): -0.0365 ± 0.074
[2]
  level (log10): -0.015 ± 0.067
[3]
  level (log10): 0.0355 ± 0.087
[4]
  level (log10): -0.0005 ± 0.018
[5]; 2200 nM
  level (log10): -0.0105 ± 0.044
[5]; 6700 nM
  level (log10): -0.018 ± 0.021
[5]; 20000 nM
  level (log10): -0.058 ± 0.0042
[5]; 60000 nM
  level (log10): -0.0145 ± 0.047
[6]
  level (log10): 0.0105 ± 0.03
[7]
  level (log10): 0.0165 ± 0.11
[8]; 740 nM
  level (log10): -0.0095 ± 0.073
[8]; 2200 nM
  level (log10): 0.0175 ± 0.026
[9]
  level (log10): 0.0205 ± 0.1
[10]
  level (log10): 0.0185 ± 0.079
[11]; 2200 nM
  level (log10): -0.0135 ± 0.061
[11]; 6700 nM
  level (log10): -0.028 ± 0.03
[11]; 20000 nM
  level (log10): -0.0585 ± 0.0064
[12]
  level (log10): 0.0045 ± 0.08
[13]
  level (log10): 0.0035 ± 0.046
[14]; 2200 nM
  level (log10): 0.0095 ± 0.013
[14]; 6700 nM
  level (log10): -0.0075 ± 0.012
[14]; 20000 nM
  level (log10): -0.027 ± 0.0042
